Measured values taken from the supplement of paper PMC10849652.
The other results are listed elsewhere or left out.

Chains of the proteins cited; added tags and fusions are not shown. Lines headed by an entry give the natural chain unless they say otherwise; changes in a name come on top.
UniProt Q9BUT1: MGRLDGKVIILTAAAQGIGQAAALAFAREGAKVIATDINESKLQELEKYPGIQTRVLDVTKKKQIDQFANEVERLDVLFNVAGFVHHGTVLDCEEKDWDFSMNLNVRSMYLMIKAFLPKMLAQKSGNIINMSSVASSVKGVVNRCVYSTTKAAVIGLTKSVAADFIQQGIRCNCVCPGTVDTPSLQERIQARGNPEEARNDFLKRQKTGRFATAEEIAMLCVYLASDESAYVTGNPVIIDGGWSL
UniProt Q8WXE1: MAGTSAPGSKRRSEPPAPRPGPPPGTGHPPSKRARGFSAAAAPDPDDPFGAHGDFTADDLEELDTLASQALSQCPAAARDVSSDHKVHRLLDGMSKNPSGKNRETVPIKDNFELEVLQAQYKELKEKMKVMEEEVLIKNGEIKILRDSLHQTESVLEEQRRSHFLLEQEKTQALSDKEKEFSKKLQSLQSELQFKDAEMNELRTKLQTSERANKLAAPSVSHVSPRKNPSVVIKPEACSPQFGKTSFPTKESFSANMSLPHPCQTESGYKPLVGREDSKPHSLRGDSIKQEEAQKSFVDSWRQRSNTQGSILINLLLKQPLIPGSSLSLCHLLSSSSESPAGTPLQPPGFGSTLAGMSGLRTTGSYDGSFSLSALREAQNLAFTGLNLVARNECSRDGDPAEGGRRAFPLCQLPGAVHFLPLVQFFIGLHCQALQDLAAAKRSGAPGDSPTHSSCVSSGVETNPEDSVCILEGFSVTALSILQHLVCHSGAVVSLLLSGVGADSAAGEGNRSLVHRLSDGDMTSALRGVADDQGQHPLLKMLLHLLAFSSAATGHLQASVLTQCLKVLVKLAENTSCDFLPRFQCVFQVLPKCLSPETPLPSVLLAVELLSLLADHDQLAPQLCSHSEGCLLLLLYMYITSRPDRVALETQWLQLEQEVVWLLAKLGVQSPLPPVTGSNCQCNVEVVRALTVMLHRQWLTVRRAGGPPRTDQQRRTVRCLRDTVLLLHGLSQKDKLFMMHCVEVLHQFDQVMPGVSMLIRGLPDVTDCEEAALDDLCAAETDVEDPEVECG
UniProt Q9P287, whole entry, looked up: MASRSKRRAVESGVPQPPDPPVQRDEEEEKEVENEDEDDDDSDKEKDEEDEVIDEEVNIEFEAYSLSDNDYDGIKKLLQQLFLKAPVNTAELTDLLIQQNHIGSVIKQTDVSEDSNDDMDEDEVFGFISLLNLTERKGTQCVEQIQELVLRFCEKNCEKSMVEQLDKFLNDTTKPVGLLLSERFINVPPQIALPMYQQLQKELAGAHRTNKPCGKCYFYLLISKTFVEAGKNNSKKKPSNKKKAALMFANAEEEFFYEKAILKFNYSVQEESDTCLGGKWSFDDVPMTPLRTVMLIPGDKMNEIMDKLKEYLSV
UniProt Q9UHR4: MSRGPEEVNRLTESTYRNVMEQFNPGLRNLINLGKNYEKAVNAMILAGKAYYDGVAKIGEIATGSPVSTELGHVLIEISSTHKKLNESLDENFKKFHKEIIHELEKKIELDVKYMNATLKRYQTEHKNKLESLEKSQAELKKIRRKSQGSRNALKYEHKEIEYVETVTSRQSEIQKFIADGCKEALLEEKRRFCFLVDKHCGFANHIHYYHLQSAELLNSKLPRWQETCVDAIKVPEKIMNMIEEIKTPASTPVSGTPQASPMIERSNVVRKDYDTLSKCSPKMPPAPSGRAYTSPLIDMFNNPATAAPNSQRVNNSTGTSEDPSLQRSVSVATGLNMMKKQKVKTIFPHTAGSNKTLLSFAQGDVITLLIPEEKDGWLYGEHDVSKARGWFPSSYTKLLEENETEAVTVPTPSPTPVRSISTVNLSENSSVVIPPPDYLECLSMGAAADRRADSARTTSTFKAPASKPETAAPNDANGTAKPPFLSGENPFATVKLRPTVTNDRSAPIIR
UniProt P15056, whole entry, looked up: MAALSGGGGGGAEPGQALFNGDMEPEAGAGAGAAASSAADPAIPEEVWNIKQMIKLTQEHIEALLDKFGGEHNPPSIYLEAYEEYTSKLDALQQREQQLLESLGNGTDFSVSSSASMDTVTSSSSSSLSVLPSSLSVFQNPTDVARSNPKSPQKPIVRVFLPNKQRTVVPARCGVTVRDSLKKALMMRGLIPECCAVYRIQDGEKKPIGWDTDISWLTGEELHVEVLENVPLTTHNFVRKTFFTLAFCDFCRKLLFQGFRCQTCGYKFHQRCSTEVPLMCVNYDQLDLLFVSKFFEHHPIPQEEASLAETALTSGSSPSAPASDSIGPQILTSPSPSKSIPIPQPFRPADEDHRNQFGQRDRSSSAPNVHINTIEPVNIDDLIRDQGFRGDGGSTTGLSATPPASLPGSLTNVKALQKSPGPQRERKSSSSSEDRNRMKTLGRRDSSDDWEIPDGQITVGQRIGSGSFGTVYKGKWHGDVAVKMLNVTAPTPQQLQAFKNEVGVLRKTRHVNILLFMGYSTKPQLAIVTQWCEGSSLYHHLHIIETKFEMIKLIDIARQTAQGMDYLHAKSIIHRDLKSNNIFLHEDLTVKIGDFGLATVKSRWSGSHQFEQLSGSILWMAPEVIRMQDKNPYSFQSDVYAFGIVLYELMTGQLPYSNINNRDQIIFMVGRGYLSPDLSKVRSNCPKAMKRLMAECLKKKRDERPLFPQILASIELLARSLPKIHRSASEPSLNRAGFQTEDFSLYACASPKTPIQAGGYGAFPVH
UniProt Q14CW9: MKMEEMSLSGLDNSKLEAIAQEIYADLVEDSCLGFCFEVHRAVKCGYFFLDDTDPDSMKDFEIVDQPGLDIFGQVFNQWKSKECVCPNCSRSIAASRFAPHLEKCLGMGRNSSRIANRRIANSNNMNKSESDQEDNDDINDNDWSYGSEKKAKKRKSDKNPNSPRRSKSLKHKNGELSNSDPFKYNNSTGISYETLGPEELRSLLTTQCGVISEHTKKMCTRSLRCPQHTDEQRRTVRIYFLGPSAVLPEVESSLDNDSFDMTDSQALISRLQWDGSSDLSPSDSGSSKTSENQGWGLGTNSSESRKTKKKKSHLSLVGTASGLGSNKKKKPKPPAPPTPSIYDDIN
UniProt O14965: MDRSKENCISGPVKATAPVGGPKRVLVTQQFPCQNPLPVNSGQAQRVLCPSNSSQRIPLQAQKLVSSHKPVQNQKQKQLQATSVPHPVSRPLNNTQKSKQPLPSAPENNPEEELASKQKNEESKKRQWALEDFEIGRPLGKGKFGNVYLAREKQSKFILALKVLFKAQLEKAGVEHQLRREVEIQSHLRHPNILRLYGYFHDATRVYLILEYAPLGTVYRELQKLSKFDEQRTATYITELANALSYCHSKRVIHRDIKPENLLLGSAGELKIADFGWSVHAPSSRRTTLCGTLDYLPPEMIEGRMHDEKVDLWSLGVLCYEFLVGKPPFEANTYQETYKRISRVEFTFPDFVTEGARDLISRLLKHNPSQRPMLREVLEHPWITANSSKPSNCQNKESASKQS
UniProt Q6UW56: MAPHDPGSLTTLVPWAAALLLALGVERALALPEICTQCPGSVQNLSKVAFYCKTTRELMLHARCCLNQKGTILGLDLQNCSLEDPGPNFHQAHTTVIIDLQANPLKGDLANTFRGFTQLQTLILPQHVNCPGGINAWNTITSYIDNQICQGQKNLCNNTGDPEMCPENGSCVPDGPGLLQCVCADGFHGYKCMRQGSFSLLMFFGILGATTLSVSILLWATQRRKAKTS
UniProt Q8TDH9: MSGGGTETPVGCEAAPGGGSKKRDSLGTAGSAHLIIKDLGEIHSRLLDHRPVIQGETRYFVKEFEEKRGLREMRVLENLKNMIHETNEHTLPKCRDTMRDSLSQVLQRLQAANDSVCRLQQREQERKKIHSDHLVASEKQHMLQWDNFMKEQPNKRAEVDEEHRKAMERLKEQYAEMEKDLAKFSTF
UniProt P54252: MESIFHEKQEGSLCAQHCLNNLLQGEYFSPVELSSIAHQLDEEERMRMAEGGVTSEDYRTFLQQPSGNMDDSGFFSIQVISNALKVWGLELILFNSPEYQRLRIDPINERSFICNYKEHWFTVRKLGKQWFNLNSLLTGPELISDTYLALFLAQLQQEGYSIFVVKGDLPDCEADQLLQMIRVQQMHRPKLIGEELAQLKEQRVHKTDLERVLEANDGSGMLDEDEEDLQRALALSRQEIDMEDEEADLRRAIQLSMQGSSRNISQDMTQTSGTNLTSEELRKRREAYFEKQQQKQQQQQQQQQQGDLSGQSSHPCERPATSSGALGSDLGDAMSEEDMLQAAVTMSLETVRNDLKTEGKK
UniProt Q8TD16, whole entry, looked up: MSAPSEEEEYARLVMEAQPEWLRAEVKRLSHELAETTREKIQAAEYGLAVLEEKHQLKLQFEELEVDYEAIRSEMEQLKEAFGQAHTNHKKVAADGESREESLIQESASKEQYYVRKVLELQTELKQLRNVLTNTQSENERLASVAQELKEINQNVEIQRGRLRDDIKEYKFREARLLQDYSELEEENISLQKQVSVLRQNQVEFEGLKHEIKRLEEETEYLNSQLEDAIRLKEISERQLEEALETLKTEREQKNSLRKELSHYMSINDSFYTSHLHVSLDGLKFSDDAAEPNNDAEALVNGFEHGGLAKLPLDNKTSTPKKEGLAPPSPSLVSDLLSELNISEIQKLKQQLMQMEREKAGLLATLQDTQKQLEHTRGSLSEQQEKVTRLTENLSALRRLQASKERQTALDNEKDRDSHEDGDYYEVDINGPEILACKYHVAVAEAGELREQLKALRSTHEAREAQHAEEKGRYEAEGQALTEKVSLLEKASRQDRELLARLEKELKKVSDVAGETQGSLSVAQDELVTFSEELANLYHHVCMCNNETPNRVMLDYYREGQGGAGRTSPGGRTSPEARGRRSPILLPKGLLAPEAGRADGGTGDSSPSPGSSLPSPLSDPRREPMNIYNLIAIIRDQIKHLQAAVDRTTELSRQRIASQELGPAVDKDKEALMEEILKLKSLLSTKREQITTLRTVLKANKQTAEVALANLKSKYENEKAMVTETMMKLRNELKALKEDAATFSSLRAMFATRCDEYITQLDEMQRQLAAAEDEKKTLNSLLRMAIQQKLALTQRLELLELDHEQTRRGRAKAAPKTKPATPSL
UniProt Q53S33: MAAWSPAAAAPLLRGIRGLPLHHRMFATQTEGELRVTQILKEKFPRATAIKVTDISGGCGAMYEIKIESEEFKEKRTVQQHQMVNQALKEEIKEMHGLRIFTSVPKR
UniProt Q4VC05, whole entry, looked up: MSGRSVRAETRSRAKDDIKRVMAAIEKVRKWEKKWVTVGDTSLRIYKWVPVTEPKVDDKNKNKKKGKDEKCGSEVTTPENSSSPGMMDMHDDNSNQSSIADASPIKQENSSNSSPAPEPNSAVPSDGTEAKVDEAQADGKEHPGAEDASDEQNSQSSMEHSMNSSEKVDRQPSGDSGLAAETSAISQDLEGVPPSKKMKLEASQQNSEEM
UniProt Q8IXM2, whole entry, looked up: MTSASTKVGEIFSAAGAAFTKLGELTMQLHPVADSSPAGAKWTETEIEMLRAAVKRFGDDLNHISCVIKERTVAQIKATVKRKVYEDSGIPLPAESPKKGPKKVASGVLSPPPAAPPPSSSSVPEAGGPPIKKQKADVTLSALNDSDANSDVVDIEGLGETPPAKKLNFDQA
UniProt H3BUF6: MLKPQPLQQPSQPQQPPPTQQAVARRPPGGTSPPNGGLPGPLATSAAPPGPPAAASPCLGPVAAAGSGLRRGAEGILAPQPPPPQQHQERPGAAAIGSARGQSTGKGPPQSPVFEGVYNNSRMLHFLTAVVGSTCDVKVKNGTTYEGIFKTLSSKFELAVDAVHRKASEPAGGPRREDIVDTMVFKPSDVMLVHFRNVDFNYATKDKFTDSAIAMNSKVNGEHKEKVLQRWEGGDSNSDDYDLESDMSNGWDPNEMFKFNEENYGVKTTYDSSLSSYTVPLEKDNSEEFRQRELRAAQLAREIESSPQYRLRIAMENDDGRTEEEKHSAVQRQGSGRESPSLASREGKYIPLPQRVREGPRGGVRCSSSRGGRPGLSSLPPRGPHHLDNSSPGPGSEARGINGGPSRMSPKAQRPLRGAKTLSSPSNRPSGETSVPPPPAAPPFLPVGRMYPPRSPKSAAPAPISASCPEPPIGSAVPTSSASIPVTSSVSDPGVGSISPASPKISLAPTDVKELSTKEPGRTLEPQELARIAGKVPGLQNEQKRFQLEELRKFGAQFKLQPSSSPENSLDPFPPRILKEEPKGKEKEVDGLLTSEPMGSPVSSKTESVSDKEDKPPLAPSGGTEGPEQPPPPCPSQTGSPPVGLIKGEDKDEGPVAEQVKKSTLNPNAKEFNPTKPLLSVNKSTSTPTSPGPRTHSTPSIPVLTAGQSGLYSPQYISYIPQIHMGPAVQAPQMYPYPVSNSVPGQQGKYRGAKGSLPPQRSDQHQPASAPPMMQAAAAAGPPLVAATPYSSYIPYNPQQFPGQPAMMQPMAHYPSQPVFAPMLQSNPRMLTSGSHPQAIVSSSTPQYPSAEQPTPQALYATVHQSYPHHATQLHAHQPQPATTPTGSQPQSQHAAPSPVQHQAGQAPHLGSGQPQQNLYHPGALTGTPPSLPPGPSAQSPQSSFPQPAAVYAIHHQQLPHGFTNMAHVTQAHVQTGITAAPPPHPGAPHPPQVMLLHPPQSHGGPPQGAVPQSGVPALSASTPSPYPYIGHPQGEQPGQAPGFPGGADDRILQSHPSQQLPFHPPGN

Tests used:
Assay in all cases: log2 fold change, soluble protein after heating vs DMSO (PISA); higher = thermal stabilisation; K562 cells, 10 uM, 30 min; active = over 0.2 and 3.5 SD of the protein, either way, in both replicates (recomputed)
[1] = compound: C#Cc1cccc(Nc2ncnc3cc(OCCOC)c(OCCOC)cc23)c1 [erlotinib]
Procedure, shortened: (§1)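 Aliquots of K562 cells (2×10^6 cells/mL) treated with 10 μM compound for 30 min were heated for 3 min over 48°C-58°C. After pooling and extraction in PBS with 0.5% NP-40 at 4°C, soluble protein from a 21,000xg, 90 min spin was quantified by TMTpro 16plex LC-MS/MS with channel sums equalised. Thermal stability is expressed against control samples, from duplicates, as a log2 fold change.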

[2] = compound: C/C(=N\NC(=O)C1=CC(=CC=C1)S(=O)(=O)N2CCOCC2)/C3=C(C=CC(=C3)Cl)O
Procedure, shortened: as §1

[3] = compound: C1=CC(=CC=C1C2=NC3=C(N2)C=C(C=C3)C(=O)N)OC4=CC=C(C=C4)Cl
Procedure, shortened: as §1

[4] = compound: C1=CC2=C(C=CC(=C2)/C=C\3/C(=O)NC(=NCC4=CC=CS4)S3)N=C1
Procedure, shortened: as §1

[5] = compound: C1=CC2=NC=CN=C2C=C1/C=C/3\C(=O)NC(=O)S3
Procedure, shortened: as §1

[6] = compound: C1=CC=C(C=C1)C2=NC(=C(N2)C3=CC=NC=C3)C4=CC(=C(C=C4)Cl)O
Procedure, shortened: as §1

[7] = compound: C1=CC=C2C(=C1)C3=NNC4=CC=CC(=C43)C2=O
Procedure, shortened: as §1

[8] = compound: C1=CC(=C(C=C1Cl)C2=NC3=NC=CN=C3C(=N2)NC4=CC=NC=C4)F
Procedure, shortened: as §1

[9] = compound: C1CCN(C1)C(=O)NC2=CC=CC(=C2)NC3=NC=C(C(=N3)NCCC4=CN=CN4)Br
Procedure, shortened: as §1

[10] = compound: C1CN(CCC1(CC2=CC=C(C=C2)Cl)N)C3=NC=NC4=C3C=CN4
Procedure, shortened: as §1

Target	log2 fold change [1]	log2 fold change [2]	log2 fold change [3]	log2 fold change [4]	log2 fold change [5]	log2 fold change [6]	log2 fold change [7]	log2 fold change [8]	log2 fold change [9]	log2 fold change [10]
BDH2 (UniProt Q9BUT1)	inactive: -0.003	inactive: 0.204	inactive: 0.184	inactive: -0.031	inactive: -0.005	inactive: 0.085	inactive: 0.103	–	–	–
BLVRA (UniProt C9J1E1)	inactive: 1.14	inactive: -0.151	inactive: -0.133	inactive: 0.287	inactive: -0.02	–	inactive: -0.375	–	–	–
BCAT1 (UniProt P54687)	inactive: 0.019	inactive: -0.013	inactive: -0.001	inactive: 0.009	inactive: -0.007	inactive: -0.012	inactive: -0.012	inactive: 0.068	inactive: -0.021	inactive: 0.022
BSDC1 (UniProt Q9NW68)	inactive: -0.058	inactive: 0.028	inactive: 0.021	inactive: -0.026	inactive: 0.025	inactive: -0.066	inactive: -0.055	inactive: 0.048	inactive: 0.035	inactive: -0.009
ATRIP (UniProt Q8WXE1)	inactive: 0.008	inactive: 0.044	inactive: -0.003	inactive: 0.019	inactive: 0.03	inactive: -0.041	inactive: 0.023	inactive: 0.036	inactive: 0.069	inactive: 0
BCL9 (UniProt O00512)	inactive: 0.007	inactive: 0.002	inactive: 0.167	inactive: 0.003	–	inactive: 0.05	inactive: 0.023	inactive: 0.069	inactive: 0.106	inactive: 0.095
BCCIP (UniProt Q9P287)	inactive: -0.024	inactive: 0.045	inactive: -0.027	inactive: -0.029	inactive: 0.015	inactive: 0.013	inactive: 0.035	inactive: 0.019	inactive: -0.036	inactive: 0.114
BAIAP2L1 (UniProt Q9UHR4)	inactive: -0.018	inactive: 0.023	inactive: 0.051	inactive: 0.009	inactive: 0.018	inactive: -0.058	inactive: -0.025	inactive: 0.02	inactive: -0.02	inactive: 0.005
B4GALT3 (UniProt O60512)	inactive: -0.044	inactive: 0.172	inactive: 0.069	inactive: -0.161	inactive: 0.043	inactive: 0.028	inactive: -0.066	inactive: -0.109	inactive: 0.004	inactive: -0.012
B4GALNT1 (UniProt Q00973)	inactive: -0.176	inactive: -0.006	inactive: 0.101	inactive: 0.124	inactive: -0.038	inactive: -0.073	inactive: -0.189	inactive: 0.029	inactive: 0.069	inactive: -0.141
BRAT1 (UniProt Q6PJG6)	inactive: 0.024	inactive: 0.012	inactive: 0.015	inactive: -0.007	inactive: -0.031	inactive: 0.028	inactive: 0.081	inactive: 0.007	inactive: -0.026	inactive: 0.048
BRAF (UniProt P15056)	inactive: 0.031	inactive: 0.057	inactive: 0.007	inactive: 0.08	inactive: -0.012	–	inactive: -0.054	inactive: 0.034	inactive: -0.088	inactive: 0.024
ATXN7L3 isoform 2 (UniProt Q14CW9)	inactive: 0.069	inactive: -0.31	inactive: 0.071	inactive: 0.025	inactive: 0.159	inactive: -0.122	inactive: -0.037	–	–	–
BCAS2 (UniProt O75934)	inactive: -0.124	inactive: 0.03	inactive: 0.062	inactive: -0.009	inactive: 0.103	inactive: 0.053	inactive: -0.066	inactive: -0.005	inactive: -0.195	inactive: -0.071
AURKA (UniProt O14965)	inactive: 0.181	inactive: 0.018	inactive: -0.061	inactive: -0.08	inactive: -0.028	inactive: 0.028	inactive: 0.462	inactive: -0.055	active: 0.707	inactive: -0.313
BOP1 (UniProt Q14137)	inactive: -0.003	inactive: 0.038	inactive: 0	inactive: -0.053	inactive: 0.041	inactive: -0.153	inactive: -0.014	inactive: -0.144	inactive: 0.043	inactive: 0.036

Taken from the entries so far for reference:
Target	log2 fold change [1]	log2 fold change [2]	log2 fold change [3]	log2 fold change [4]	log2 fold change [5]	log2 fold change [6]	log2 fold change [7]	log2 fold change [8]	log2 fold change [9]	log2 fold change [10]
B4GALT3 (UniProt O60512)	inactive: -0.044	inactive: 0.172	inactive: 0.069	inactive: -0.161	inactive: 0.043	inactive: 0.028	inactive: -0.066	inactive: -0.109	inactive: 0.004	inactive: -0.012
B4GALNT1 (UniProt Q00973)	inactive: -0.176	inactive: -0.006	inactive: 0.101	inactive: 0.124	inactive: -0.038	inactive: -0.073	inactive: -0.189	inactive: 0.029	inactive: 0.069	inactive: -0.141

(next part)

Target	log2 fold change [1]	log2 fold change [2]	log2 fold change [3]	log2 fold change [4]	log2 fold change [5]	log2 fold change [6]	log2 fold change [7]	log2 fold change [8]	log2 fold change [9]	log2 fold change [10]
ATRAID isoform 3 (UniProt Q6UW56)	inactive: 0.061	inactive: -0.022	inactive: 0.069	inactive: 0.002	inactive: 0.038	inactive: -0.038	inactive: -0.06	–	inactive: -0.04	inactive: -0.046
BLOC1S5 (UniProt Q8TDH9)	inactive: 0.072	inactive: 0.013	inactive: 0.039	inactive: 0.047	inactive: 0.044	inactive: -0.008	inactive: -0.03	inactive: 0.018	inactive: -0.036	inactive: 0
ATXN3 isoform 1 (UniProt P54252)	inactive: 0.082	inactive: 0.107	inactive: 0.038	inactive: -0.042	inactive: 0.082	inactive: -0.038	inactive: -0.115	–	inactive: -0.073	inactive: -0.002
BICD2 isoform 2 (UniProt Q8TD16)	inactive: 0.047	inactive: 0.05	inactive: -0.007	inactive: 0.129	inactive: -0.001	inactive: 0.034	inactive: 0.007	inactive: 0.048	inactive: -0.013	inactive: -0.075
BSCL2 isoform 4 (UniProt Q96G97)	inactive: -0.024	inactive: 0.088	inactive: 0.052	inactive: 0.06	inactive: -0.012	–	inactive: -0.045	inactive: -0.016	inactive: 0.045	inactive: -0.001
BORCS7 (UniProt Q96B45)	inactive: 0.061	inactive: 0.033	inactive: 0.024	inactive: 0.136	inactive: 0.059	–	inactive: 0.01	–	inactive: -0.053	inactive: 0.132
BNIP1 (UniProt Q12981)	inactive: -0.003	inactive: 0.009	inactive: 0.015	inactive: 0.033	inactive: 0.012	inactive: 0.009	inactive: -0.033	inactive: 0.025	inactive: -0.016	inactive: -0.006
BCL2L11 (UniProt O43521)	inactive: 0.011	inactive: -0.03	inactive: -0.058	inactive: -0.128	–	inactive: 0.026	inactive: 0.017	inactive: -0.024	inactive: -0.189	inactive: 0.196
BOLA3 (UniProt Q53S33)	inactive: -0.001	inactive: -0.028	inactive: 0.017	inactive: 0.002	inactive: 0.015	inactive: -0.022	inactive: 0.025	inactive: 0.041	inactive: 0.028	inactive: 0.02
AURKAIP1 (UniProt Q9NWT8)	inactive: -0.316	inactive: -0.249	inactive: 0.073	inactive: -0.082	–	inactive: -0.104	inactive: 0.053	inactive: -0.287	inactive: 0.062	inactive: -0.269
BPNT1 (UniProt O95861)	inactive: -0.026	inactive: 0.016	inactive: 0.008	inactive: -0.022	inactive: -0.008	inactive: 0.037	inactive: -0.016	inactive: 0.045	inactive: -0.019	inactive: -0.021
BAK1 (UniProt Q16611)	inactive: -0.015	inactive: 0.047	inactive: 0.011	inactive: 0.008	inactive: 0.137	–	inactive: 0.084	inactive: 0.143	inactive: -0.04	inactive: 0.027
BCL7A isoform 2 (UniProt Q4VC05)	inactive: -0.059	inactive: 0	inactive: 0.026	inactive: -0.043	–	–	inactive: 0.03	inactive: -0.191	inactive: 0.038	inactive: -0.007
BAIAP2 isoform 4 (UniProt Q9UQB8)	–	–	–	–	–	–	–	–	inactive: -0.16	inactive: -0.048
BAP18 isoform 3 (UniProt Q8IXM2)	inactive: 0.02	–	inactive: -0.146	–	–	–	–	–	inactive: -0.039	inactive: -0.015
ATXN2L (UniProt H3BUF6)	–	–	–	–	inactive: -0.04	inactive: 0.219	–	–	–	–

Some values from the entries so far.
Entry of BORCS7 (UniProt Q96B45) under log2 fold change [7]: inactive: 0.01
Entry of BAP18 isoform 3 (UniProt Q8IXM2) under log2 fold change [10]: inactive: -0.015
Entry of BOLA3 (UniProt Q53S33) under log2 fold change [1]: inactive: -0.001
